The other results are listed elsewhere or left out. Further columns of the screen follow, without active or inactive calls. Most of these compounds were active or inconclusive in the main read-out, so they are no random draw. The note in brackets gives the kind of curve behind each potency; many fits are weak. Where a SMILES comes first, the peptide text is derived from it. The star is where a group is joined. Bz = O=C(c1ccccc1)*

In PubChem BioAssay AID2685 (National Center for Advancing Translational Sciences (NCATS), 2010) one finds AC50 and cell number change data, which are given here for 60 molecules.

This test in a line: qHTS Assay for Lipid Storage Modulators in Drosophila S3 Cells.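 On cell number change: cells counted by Cell Tracker Red CMTPX staining in the red channel.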 The conditions noted are these: BODIPY lipid droplet fluorescence, 18-24 h; for cell number change: measured here: cell count max response, cells fed with added oleic acid. Summed up:
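Drosophila S3 cells got compounds at several concentrations plus oleic acid (400 uM solution). Laser-scanning cytometry with 488 nm excitation read lipid droplets at 500-530 nm and cells at 575-640 nm. Percent activity was relative to 20 uM Triacsin C.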

[1] abbreviates: measured here: cell number channel AC50, cells fed with added oleic acid.
[2] abbreviates: measured here: lipid fluorescence (Fed channel) AC50, cells fed with added oleic acid.

In general, AC50 refers to the concentration giving half of the maximal activity seen. A low value points to activity at low concentration. Consider `COc1ccc(-c2cn(-c3ccc(C)cc3)c(=O)n2CC(=O)Nc2ccc(OC)cc2OC)cc1`, for which the AC50 was 6.51 µM [rising, single point] under setting [1] and 6.51 µM [rising, single point] under setting [2]. Consider `COCCOC(=O)c1c(C)oc2ccc(O)c(CN3CCC(C)CC3)c12`, for which the cell number change stood at 34.2%. Also, the AC50 under setting [1] was 5.17 µM [rising, full curve].

On to `Cc1ccc(C(=O)N2CCN(c3ccc(Cl)cc3)CC2)cc1`, for which the cell number change is -0.0729%. Further, the AC50 under setting [2] was 10.3 µM [rising, partial curve]. With `CCCC(=O)Nc1cccc2c1CCCC2`, the cell number change is -1.63%.

Take `COc1ccc(C(=O)NC2CC2)cc1OC1CCN(C(C)CSC)CC1` (configuration not stated): the AC50 under setting [2] was 3.66 µM [falling, partial curve].

Take `CO/N=C/c1ccc(N2CCN(C(=O)c3cccc(Cl)c3)CC2)c([N+](=O)[O-])c1`: the cell number change was -69.8%. In addition, the AC50 under setting [2] was 0.146 µM [falling, full curve, poor fit]. As for `CCC1CCCCN1CCCNC(=O)C1CCC(Cn2c(=O)[nH]c3ccccc3c2=O)CC1` (configuration not stated), the cell number change amounted to 2.41%. The AC50 under setting [2] is 1.64 µM [rising, partial curve]. On to `Cc1cc(C)nc(Nc2nc(C)c3cc4c(cc3n2)OCO4)n1`, for which the AC50 is, setting by setting: under setting [1], 6.51 µM [rising, partial curve, poor fit]; under setting [2], 1.16 µM [rising, partial curve]. Take `Cc1nc2ccc(NC(=O)N3CCSCC3)cc2nc1C`: the cell number change worked out at 5.07%. In addition, the AC50 under setting [2] is 1.46 µM [rising, full curve]. `O=C(Nc1ccc(Cl)cc1)Nc1ccccc1NS(=O)(=O)c1cccs1`: the cell number change is -29.2%. Under setting [2], the concentration at half-maximal activity (AC50) is 1.03 µM [falling, full curve]. In the case of `CCc1cc(C(=O)N2CCN(c3ncccn3)CC2)sc1C`, the cell number change was found to be 0.803%. In addition, the AC50 under setting [1] was 1.46 µM [rising, single point].

Regarding `CCOc1ccc2[nH]c(O)c(NC(C)=O)c2c1`, the cell number change was 9.41%. Moreover, under setting [2], the AC50 was 6.51 µM [rising, single point]. `O=C(NC(Cc1ccccc1)C(=O)NC(Cc1ccccc1)C(=O)O)c1ccccc1` (stereo not drawn) (Bz-Phe-Phe-OH; configuration not given here): the cell number change was determined as 34.9%.

On to `COC(=O)c1ccc2c(c1)NC(=O)C(N1CCOCC1)S2` (configuration not stated), for which the cell number change is 7.15%. `COc1ccc(N2CC(NS(=O)(=O)c3cccnc3)CC2=O)cc1OC` (configuration not stated): the AC50 under setting [2] was 0.116 µM [rising, full curve, poor fit].

As to `CC(C)(C)C(=O)Nc1ccccc1C(=O)NCCC(=O)Nc1ccccc1`, the cell number change was -28.9%. In addition, under setting [2], the AC50 is 11.6 µM [falling, partial curve]. Regarding `N#Cc1nc(-c2ccccc2)oc1N1CCC(C(N)=O)CC1`, the cell number change came to 15.3%. Further, under setting [2], the AC50 is 1.64 µM [falling, partial curve]. As to `Cc1c(-c2ccccc2)oc2c(C(=O)OCC(=O)Nc3ccc(C(N)=O)cc3)cccc2c1=O`, the AC50 under setting [2] is 2.91 µM [rising, single point]. For the molecule `c1cc2c3c(cccc3c1)C(N1CCOCC1)=N2`, the cell number change was 5.66%. Also, under setting [2], the AC50 is 20.6 µM [rising, single point].

`COc1ccc(-n2c(SCC(=O)Nc3ccc(C(=O)O)cc3)nnc2-c2cccs2)cc1`: the cell number change is -5.84%. Also, the AC50 under setting [1] is 0.103 µM [falling, full curve, poor fit]. Consider `O=C(NCCN1CCNC1=O)C1CCC(=O)N(CCc2ccc(Cl)cc2)C1` (configuration not stated), for which the cell number change is 28.5%. The AC50 under setting [2] was 29.1 µM [rising, single point]. As for `Cc1cc(CNC(=O)c2cccc(OC3CCN(S(=O)(=O)N(C)C)CC3)c2)on1`, the cell number change is -14.8%. Further, the AC50 under setting [2] is 29.1 µM [falling, single point]. As to `CCN1CCN(C(=O)CN(CC)S(=O)(=O)c2ccc(F)cc2)CC1`, the AC50 under setting [1] was 4.11 µM [falling, single point]. Consider `Cc1ccccc1COC(=O)c1cc([N+](=O)[O-])ccc1N1CCOCC1`, for which the cell number change was -2.89%. As to `COc1ccccc1OCC(=O)OCC(=O)Nc1ncc(Cl)cc1Cl`, the cell number change stood at 12.1%. Moreover, the AC50 under setting [2] is 0.13 µM [falling, full curve, poor fit].

For the molecule `CCOc1ccc(/C=C/C(=O)c2ccccc2)cc1OC`, the cell number change stood at 23%. For the same molecule, the AC50 under setting [1] was 2.06 µM [rising, partial curve]. For the same molecule, the AC50 under setting [2] was 3.66 µM [rising, partial curve]. `O=C(O)C(C/C(=N/O)c1ccc(Br)cc1)P(=O)(c1ccccc1)c1ccccc1` (configuration not stated): the cell number change is -8.81%. For `CCN(CCn1cccn1)Cc1nc(-c2ccccc2)no1`, the cell number change was 8.5%. Moreover, the AC50 under setting [2] was 23.1 µM [rising, single point]. On to `CC(=O)Nc1ccc2nc(-c3ccc(Br)o3)[nH]c2c1`, for which the cell number change was -8.71%. The AC50 under setting [2] was 32.6 µM [falling, single point]. With `O=C(O)c1cc(S(=O)(=O)Nc2ccc(OCc3ccccc3)cc2)ccc1Br`, the cell number change came out at 22.2%. With `CCN(CC)CCn1c(NC(=O)c2ccc(C(F)(F)F)cc2)nc2ccccc21`, the cell number change was 0.34%. Also, the AC50 under setting [1] is 6.51 µM [falling, single point]. As for `Cc1cc(NC(=O)CCN2CCN(C/C=C/c3ccccc3)CC2)ccc1Br`, the cell number change is -6.2%. Take `CCOC(=O)C(C)Oc1c(Br)cc(C2NC(=O)NC(C)=C2C(C)=O)cc1OCC` (configuration not stated): the AC50 under setting [2] was 6.51 µM [rising, single point]. Regarding `CCOC(=O)N1CCN(C(=O)CSc2nc3c(cnn3-c3ccccc3)c(=O)[nH]2)CC1`, the cell number change was found to be 26.1%. In addition, the AC50 under setting [1] is 0.0146 µM [rising, full curve, poor fit]. Also, the AC50 under setting [2] is 0.146 µM [rising, full curve, poor fit]. In the case of `O=C(NNC(=O)c1ccc(Br)s1)c1cccc(Cl)c1`, the cell number change was -1.82%. The AC50 under setting [2] is 9.2 µM [rising, partial curve]. Take `Cc1ccccc1-c1noc(CNC(=O)c2ccco2)n1`: the cell number change came to 23.9%. Also, the AC50 under setting [2] was 0.231 µM [rising, full curve, poor fit]. In the case of `Cc1cc2c(cc1C)C(c1ccccc1Br)CC(=O)N2` (configuration not stated), the cell number change is -2.87%. Moreover, the AC50 under setting [2] was 1.03 µM [rising, partial curve]. In the case of `O=C1CC(O)(c2ccccc2)C(c2ccccc2)=C1c1ccccc1` (configuration not stated), the cell number change was -45.3%. Also, the AC50 under setting [1] is 20.6 µM [falling, single point]. Moreover, the AC50 under setting [2] is 23.1 µM [falling, single point]. Consider `CCCCN(CCCC)CCCNC(=O)CC1Oc2ccc(C)cc2NC1=O` (configuration not stated), for which the AC50 under setting [2] was 25.9 µM [falling, partial curve]. For `O=C(OCC#CCSc1nnc(-c2ccc(Br)cc2)o1)c1ccco1`, the cell number change was determined as 34.8%. Under setting [1], the AC50 is 10.3 µM [rising, partial curve]. Further, under setting [2], the AC50 is 14.6 µM [rising, partial curve]. As for `Cc1ccc(-c2nc(CS(=O)(=O)CC(=O)NCCN3CCCC3)c(C)o2)cc1`, the cell number change is -6.85%. Besides, the AC50 under setting [2] was 2.59 µM [rising, full curve, poor fit]. On to `Cc1nn(Cc2ccc(Cl)cc2Cl)c(C)c1NC(=O)NC12CC3CC(CC(C3)C1)C2`, for which the cell number change is -41.6%. Further, the AC50 under setting [1] was 0.82 µM [falling, full curve]. Also, under setting [2], the AC50 was 29.1 µM [falling, single point]. In the case of `CCOC(=O)C1CCCN(c2c(Nc3cccc(C)c3)c(=O)c2=O)C1` (configuration not stated), the cell number change worked out at 32.1%. Under setting [1], the AC50 is 6.51 µM [rising, single point]. Further, the AC50 under setting [2] was 6.51 µM [rising, single point].

As to `Cc1ccc(CN2CCC(CNS(=O)(=O)c3ccc(-c4ccc(=O)[nH]n4)s3)CC2)cc1`, the cell number change is -7.08%. For the same molecule, the AC50 under setting [2] was 29.1 µM [falling, single point].

Turning to `Cc1cccc(N2CCN(C(=O)C3CCN(c4ncnc5c4nc4n5CCCCC4)CC3)CC2)c1C`, the AC50 under setting [2] is 1.84 µM [falling, full curve]. Turning to `CCN1C(=O)CC(N2CCN(c3ccc(C(=O)c4ccccc4)cc3)CC2)C1=O` (configuration not stated), the cell number change was -79.9%. The AC50 under setting [1] is 0.259 µM [falling, partial curve, poor fit]. Besides, under setting [2], the AC50 was 32.6 µM [falling, single point]. For `CCCOC(=O)Nc1nc2ccccc2o1`, the cell number change worked out at 7.36%. Under setting [2], the AC50 is 0.0731 µM [falling, full curve, poor fit]. As to `COC(=O)c1cc(S(=O)(=O)N2CCOCC2)ccc1Sc1ccccc1N`, the cell number change is -27.4%.

For the molecule `O=C(CSc1nnc(-c2ccco2)n1CC1CCCO1)c1ccc(F)cc1` (configuration not stated), the cell number change is -10%. For the same molecule, the AC50 under setting [1] is 0.731 µM [falling, full curve, poor fit]. In the case of `CC(C#N)Sc1ccc(S(=O)(=O)N(C)C2CCCCC2)cn1` (configuration not stated), the cell number change was -12.2%. Further, under setting [2], the AC50 is 6.51 µM [falling, partial curve]. For `CCN(CC)C(=O)CC1(c2ccccc2OC)CCOC(C(C)C)C1` (configuration not stated), the cell number change turned out to be 5.16%. On to `COc1ccc(OC)c(NC(=O)COC(=O)/C=C/c2ccc(Cl)cc2)c1`, for which the cell number change worked out at 4.56%. Moreover, the AC50 under setting [2] was 18.4 µM [falling, partial curve, poor fit].

Consider `COC(=O)c1[nH]c2ccc(F)cc2c1NS(=O)(=O)c1ccc(OC)cc1`, for which the cell number change stood at 3.38%. The AC50 under setting [2] was 8.2 µM [rising, partial curve].

`CC1CC1C(=O)OCC(=O)c1c(N)n(C)c(=O)n(C)c1=O` (configuration not stated): the cell number change stood at 57.3%. Further, under setting [1], the AC50 was 29.1 µM [rising, single point]. Further, the AC50 under setting [2] was 29.1 µM [rising, partial curve, poor fit]. As to `CN(C)C(=O)COc1ncnc2scc(-c3ccc(F)cc3)c12`, the cell number change was 39.4%. Also, the AC50 under setting [2] is 0.00461 µM [rising, full curve, poor fit]. Consider `Cc1ccc(/C=C/C(=O)N2CCN(Cc3ccccc3)CC2)o1`, for which the cell number change is -56.7%. Under setting [1], the AC50 was 20.6 µM [falling, partial curve, poor fit]. Also, under setting [2], the AC50 was 0.92 µM [falling, full curve].

Take `CCc1ccccc1N(CC(=O)NC(C)c1ccccc1)S(C)(=O)=O` (configuration not stated): the cell number change was 13.2%. Consider `CC(C)c1ccc(Nc2nc(NCc3ccco3)nc(N3CCOCC3)n2)cc1`, for which the cell number change is -28.9%. The AC50 under setting [2] is 6.51 µM [falling, single point]. Take `CN1/C(=C/C(=O)C2CCC2)Sc2ccccc21`: the cell number change amounted to 12.2%. In addition, the AC50 under setting [2] is 0.259 µM [rising, full curve]. Take `NC(=O)C1(N2CCCCC2)CCN(C(=S)Nc2ccc(Cl)cc2)CC1`: the AC50 is 1.84 µM [rising, partial curve] under setting [1] and 6.51 µM [rising, single point] under setting [2].
